Data from publication PMC11005723, “Development of Complementary Photo‐arginine/lysine to Promote Discovery of Arg/Lys hPTMs Interactomes” (Advanced Science, 2024).
This continues a long series; more values of the same kind are listed elsewhere.

Tested on: HEK293T nuclear lysates
Assay: SILAC‐based pull‐down proteomics H4K5me2/H4K5 (probes 7/5)
Assay type: binding, human
Details: for E6 log2 (H4K5me2/H4K5): run E6; for F6 log2 (H4K5me2/H4K5): run F6
[1] = enriched protein ABCF1 (Q8NE71)
[2] = enriched protein AHCYL1 (O43865)
[3] = enriched protein ALDH18A1 (P54886)
[4] = enriched protein ALDOA (P04075)
[5] = enriched protein APEX1 (P27695)
[6] = enriched protein ATF7IP (Q6VMQ6)
[7] = enriched protein CCT6A (P40227)
[8] = enriched protein CELF1 (Q92879)
[9] = enriched protein CORO1B (Q9BR76)
[10] = enriched protein CSRP2 (Q16527)
[11] = enriched protein CSTF1 (Q05048)
[12] = enriched protein CSTF2 (E9PID8)
[13] = enriched protein DAZAP1 (K7EQ02)
[14] = enriched protein DDX1 (A0A087X2G1)
[15] = enriched protein DDX3X (A0A2R8Y5G6)
[16] = enriched protein DDX39A (O00148)
[17] = enriched protein DDX46 (A0A0C4DG89)
[18] = enriched protein DHX15 (O43143)
[19] = enriched protein EHMT2 (B0UZY3)
[20] = enriched protein EIF4A3 (P38919)
[21] = enriched protein EXOSC10 (Q01780)
[22] = enriched protein FAM120B (Q96EK7)
[23] = enriched protein FLNA (A0A087WWY3)
[24] = enriched protein FSCN1 (Q16658)
[25] = enriched protein FUBP1 (Q96AE4)
[26] = enriched protein GABPA (Q06546)
[27] = enriched protein GAPDH (E7EUT5)
[28] = enriched protein GNB2L1 (P63244)
[29] = enriched protein HNRNPA1 (F8VRQ1)
[30] = enriched protein HNRNPD (Q14103)
[31] = enriched protein HSPA9 (P38646)
[32] = enriched protein ILKAP (Q9H0C8)
[33] = enriched protein L3MBTL2 (Q969R5)
[34] = enriched protein LIMS1 (P48059)
[35] = enriched protein LRWD1 (Q9UFC0)
[36] = enriched protein MBTD1 (Q05BQ5)

probe 7: H4K5me2 peptide probe with photo‐arginine R(dz) and K(biotin) (SGRGKGGKGLGKGGK; photo-arginine R(dz) at 3; dimethyl-lysine at 5; K(biotin) at 15)
E6 log2 (H4K5me2/H4K5) [1]: 0.5648 | F6 log2 (H4K5me2/H4K5) [1]: -0.2191 | E6 log2 (H4K5me2/H4K5) (enriched protein ADD1 (E7EV99)): 1.022 | F6 log2 (H4K5me2/H4K5) (enriched protein ADD1 (E7EV99)): 0.7863 | E6 log2 (H4K5me2/H4K5) [2]: 1.535 | F6 log2 (H4K5me2/H4K5) [2]: -0.3157 | E6 log2 (H4K5me2/H4K5) [3]: 0.4958 | F6 log2 (H4K5me2/H4K5) [3]: 0.07847 | E6 log2 (H4K5me2/H4K5) [4]: 0.6232 | F6 log2 (H4K5me2/H4K5) [4]: 0.6108 | E6 log2 (H4K5me2/H4K5) [5]: 0.5368 | F6 log2 (H4K5me2/H4K5) [5]: 0.4869 | E6 log2 (H4K5me2/H4K5) [6]: 1.496 | F6 log2 (H4K5me2/H4K5) [6]: -0.04952 | E6 log2 (H4K5me2/H4K5) (enriched protein CBX1 (P83916)): 3.0479 | F6 log2 (H4K5me2/H4K5) (enriched protein CBX1 (P83916)): 2.61 | E6 log2 (H4K5me2/H4K5) (enriched protein CBX3 (Q13185)): 1.7014 | F6 log2 (H4K5me2/H4K5) (enriched protein CBX3 (Q13185)): 1.82 | E6 log2 (H4K5me2/H4K5) (enriched protein CBX5 (P45973)): 0.9439 | F6 log2 (H4K5me2/H4K5) (enriched protein CBX5 (P45973)): 1.155 | E6 log2 (H4K5me2/H4K5) [7]: 0.6351 | F6 log2 (H4K5me2/H4K5) [7]: 0.5411 | E6 log2 (H4K5me2/H4K5) [8]: 0.6093 | F6 log2 (H4K5me2/H4K5) [8]: 0.3612 | E6 log2 (H4K5me2/H4K5) (enriched protein CNBP (P62633)): 0.7384 | F6 log2 (H4K5me2/H4K5) (enriched protein CNBP (P62633)): 0.485 | E6 log2 (H4K5me2/H4K5) [9]: 0.5137 | F6 log2 (H4K5me2/H4K5) [9]: 0.2992 | E6 log2 (H4K5me2/H4K5) (enriched protein CSK (P41240)): 0.6969 | F6 log2 (H4K5me2/H4K5) (enriched protein CSK (P41240)): -0.06659 | E6 log2 (H4K5me2/H4K5) [10]: 1.263 | F6 log2 (H4K5me2/H4K5) [10]: 0.771 | E6 log2 (H4K5me2/H4K5) [11]: 0.8653 | F6 log2 (H4K5me2/H4K5) [11]: 0.6447 | E6 log2 (H4K5me2/H4K5) [12]: 0.7798 | F6 log2 (H4K5me2/H4K5) [12]: 0.3906 | E6 log2 (H4K5me2/H4K5) (enriched protein CUL3 (Q13618)): 0.4204 | F6 log2 (H4K5me2/H4K5) (enriched protein CUL3 (Q13618)): 0.1959 | E6 log2 (H4K5me2/H4K5) (enriched protein CYCS (C9JFR7)): 0.793 | F6 log2 (H4K5me2/H4K5) (enriched protein CYCS (C9JFR7)): 0.7226 | E6 log2 (H4K5me2/H4K5) [13]: 0.8675 | F6 log2 (H4K5me2/H4K5) [13]: 1.092 | E6 log2 (H4K5me2/H4K5) [14]: 0.7443 | F6 log2 (H4K5me2/H4K5) [14]: 0.8493 | E6 log2 (H4K5me2/H4K5) [15]: 0.8699 | F6 log2 (H4K5me2/H4K5) [15]: 0.1194 | E6 log2 (H4K5me2/H4K5) (enriched protein DDX5 (J3KTA4)): 0.5003 | F6 log2 (H4K5me2/H4K5) (enriched protein DDX5 (J3KTA4)): 0.5059 | E6 log2 (H4K5me2/H4K5) [16]: 0.482 | F6 log2 (H4K5me2/H4K5) [16]: 0.5893 | E6 log2 (H4K5me2/H4K5) [17]: 0.6833 | F6 log2 (H4K5me2/H4K5) [17]: 0.6003 | E6 log2 (H4K5me2/H4K5) [18]: 0.4402 | F6 log2 (H4K5me2/H4K5) [18]: 0.4387 | E6 log2 (H4K5me2/H4K5) (enriched protein DIS3 (Q9Y2L1)): 0.4109 | F6 log2 (H4K5me2/H4K5) (enriched protein DIS3 (Q9Y2L1)): 0.3569 | E6 log2 (H4K5me2/H4K5) [19]: 0.4681 | F6 log2 (H4K5me2/H4K5) [19]: 0.2418 | E6 log2 (H4K5me2/H4K5) [20]: 0.8737 | F6 log2 (H4K5me2/H4K5) [20]: 0.5817 | E6 log2 (H4K5me2/H4K5) (enriched protein ENO1 (P06733)): 0.528 | F6 log2 (H4K5me2/H4K5) (enriched protein ENO1 (P06733)): 0.4207 | E6 log2 (H4K5me2/H4K5) [21]: 0.5551 | F6 log2 (H4K5me2/H4K5) [21]: -0.002284 | E6 log2 (H4K5me2/H4K5) [22]: 1.788 | F6 log2 (H4K5me2/H4K5) [22]: 0.0239 | E6 log2 (H4K5me2/H4K5) (enriched protein FHL1 (Q5JXI8)): 0.7221 | F6 log2 (H4K5me2/H4K5) (enriched protein FHL1 (Q5JXI8)): 0.5443 | E6 log2 (H4K5me2/H4K5) [23]: 0.4728 | F6 log2 (H4K5me2/H4K5) [23]: 0.5364 | E6 log2 (H4K5me2/H4K5) [24]: 1.428 | F6 log2 (H4K5me2/H4K5) [24]: 0.715 | E6 log2 (H4K5me2/H4K5) [25]: 0.6224 | F6 log2 (H4K5me2/H4K5) [25]: 0.5295 | E6 log2 (H4K5me2/H4K5) (enriched protein FUS (P35637)): 0.4011 | F6 log2 (H4K5me2/H4K5) (enriched protein FUS (P35637)): 0.4725 | E6 log2 (H4K5me2/H4K5) [26]: 0.6937 | F6 log2 (H4K5me2/H4K5) [26]: 0.2833 | E6 log2 (H4K5me2/H4K5) [27]: 0.4479 | F6 log2 (H4K5me2/H4K5) [27]: 0.4342 | E6 log2 (H4K5me2/H4K5) (enriched protein GDI2 (P50395)): 0.6366 | F6 log2 (H4K5me2/H4K5) (enriched protein GDI2 (P50395)): 0.1649 | E6 log2 (H4K5me2/H4K5) [28]: 0.611 | F6 log2 (H4K5me2/H4K5) [28]: 0.701 | E6 log2 (H4K5me2/H4K5) [29]: 0.4124 | F6 log2 (H4K5me2/H4K5) [29]: 0.316 | E6 log2 (H4K5me2/H4K5) [30]: 0.5489 | F6 log2 (H4K5me2/H4K5) [30]: 0.4363 | E6 log2 (H4K5me2/H4K5) [31]: 0.6734 | F6 log2 (H4K5me2/H4K5) [31]: 0.7184 | E6 log2 (H4K5me2/H4K5) [32]: 0.7238 | F6 log2 (H4K5me2/H4K5) [32]: 0.434 | E6 log2 (H4K5me2/H4K5) (enriched protein IPO4 (Q8TEX9)): 0.5564 | F6 log2 (H4K5me2/H4K5) (enriched protein IPO4 (Q8TEX9)): 0.1492 | E6 log2 (H4K5me2/H4K5) [33]: 3.755 | F6 log2 (H4K5me2/H4K5) [33]: 2.747 | E6 log2 (H4K5me2/H4K5) (enriched protein LBR (Q14739)): 0.5192 | F6 log2 (H4K5me2/H4K5) (enriched protein LBR (Q14739)): 0.1873 | E6 log2 (H4K5me2/H4K5) (enriched protein LDHA (P00338)): 0.6185 | F6 log2 (H4K5me2/H4K5) (enriched protein LDHA (P00338)): 0.5762 | E6 log2 (H4K5me2/H4K5) [34]: 0.65 | F6 log2 (H4K5me2/H4K5) [34]: 0.1802 | E6 log2 (H4K5me2/H4K5) [35]: 0.5163 | F6 log2 (H4K5me2/H4K5) [35]: 0.6122 | E6 log2 (H4K5me2/H4K5) [36]: 0.5559 | F6 log2 (H4K5me2/H4K5) [36]: 0.7084 | E6 log2 (H4K5me2/H4K5) (enriched protein MCM5 (P33992)): 0.4259 | F6 log2 (H4K5me2/H4K5) (enriched protein MCM5 (P33992)): 0.4016 | E6 log2 (H4K5me2/H4K5) (enriched protein MDH2 (P40926)): 0.6003 | F6 log2 (H4K5me2/H4K5) (enriched protein MDH2 (P40926)): 0.5962 | E6 log2 (H4K5me2/H4K5) (enriched protein MIF (P14174)): 0.4968
